A negative result means that nothing was seen under these conditions. For part of these data: For at least one entry, the source does not settle the construct or the ends of the probe.
Columns and labels:
Test in all cases: EMSA
[1] = system: RARγ + RXRαm6 RXRα internal deletion lacking DNA binding domain; settings: protein translated in vitro; label: 32P
[2] = system: RARγ + RXRαm7 RXRα internal deletion of hinge and N-terminal half of ligand binding domain; settings: protein translated in vitro; label: 32P
[3] = system: RARγm1 + RXRα RARγ C-terminal deletion of 102 aa; settings: protein translated in vitro; label: 32P
RXRα (Homo sapiens) = RXRα (Homo sapiens) (UniProt P19793); settings: no visible complex at concentration used; protein translated in vitro; label: 32P
[4] = system: TRα + RXRαm1 RXRα C-terminal deletion of 60 aa; settings: no heterodimer upshift or enhancement; protein translated in vitro; label: 32P
[5] = system: TRα + RXRαm2 RXRα C-terminal deletion of 75 aa; settings: no heterodimer upshift or enhancement; protein translated in vitro; label: 32P

By UniProt entry, the sequences of proteins in these tests, tags left out. Where a name states a change or a piece, a line headed by the entry shows the natural chain unless it says otherwise.
UniProt P19793: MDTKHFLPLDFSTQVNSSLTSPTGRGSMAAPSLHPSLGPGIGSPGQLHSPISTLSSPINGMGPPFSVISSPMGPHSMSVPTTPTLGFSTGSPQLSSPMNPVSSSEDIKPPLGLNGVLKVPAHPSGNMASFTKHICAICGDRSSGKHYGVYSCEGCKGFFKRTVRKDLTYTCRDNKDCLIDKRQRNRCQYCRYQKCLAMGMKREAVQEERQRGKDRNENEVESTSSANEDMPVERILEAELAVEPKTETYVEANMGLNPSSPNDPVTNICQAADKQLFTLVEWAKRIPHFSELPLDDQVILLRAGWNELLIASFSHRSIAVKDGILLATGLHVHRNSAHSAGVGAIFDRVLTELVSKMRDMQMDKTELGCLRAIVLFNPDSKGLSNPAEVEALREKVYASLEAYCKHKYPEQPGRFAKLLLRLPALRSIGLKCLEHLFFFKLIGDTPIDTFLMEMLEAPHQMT

Measured: binding result

GATCTCAGGTCATGACCTGAGATC (double strand) [palindromic TRE]
no binding: all assays above

Reference: patent US7026125
